Experimental data reported in PubChem BioAssay AID540276 (National Center for Advancing Translational Sciences (NCATS), 2011).
Hit rate of the full screen: of about 300,000 compounds, about 5,400 (1.8%) were called active. The inconclusive results got no clear call from the source; some entries with a clear call stand among them for comparison. Calls follow the shape of the full dose curve; tested in HEK293 cells. Where the call is inconclusive, the potency comes from a doubtful curve fit.

Test: qHTS for inhibitors of binding or entry into cells for Marburg Virus
Conditions: Marburg virus pseudotyped entry inhibition, cell reporter; activity change, negative = inhibition: at 37.8 µM (top of the series) unless noted
% is scaled to controls: 0 for no effect and ±100 for the full control effect; potency is read from the fitted curve at half-maximal effect.

Structure (SMILES) | activity change, negative = inhibition | Potency
CS(=O)(=O)N1CCc2cc(C(=O)Nc3ccc(C(F)(F)F)cc3)ccc21 | inactive: 14.1% [at 46.1 µM] | 
COc1cnc(-c2ccccn2)nc1Oc1ccc(Cl)c2ccccc12 |  | inconclusive: 29.1 µM [inhibitor, single point]
Cc1nc2ccccc2nc1OCc1ccc([N+](=O)[O-])cc1 | inactive: 13.1% [at 46.1 µM] | 
CNC(=S)N(CCc1c(C)[nH]c2ccc(C)cc12)Cc1cc(OC)c(OC)c(OC)c1 | inactive: -26% | 
CCCCONc1ncnc2nonc12 |  | inconclusive: 2.51 µM [inhibitor, single point]
CC(CC(=O)N1CCN(c2ccccc2)CC1)S(=O)(=O)c1ccc2c(c1)NC(=O)CS2 (configuration not stated) |  | inconclusive: 15.8 µM [inhibitor, single point]
Cc1oc(-c2ccccc2)cc1C(=O)Nc1cccc(/C=C\C(=O)O)c1 |  | inconclusive: 3.98 µM [activator, single point]
Cc1nc(SCc2ccc(C(=O)O)cc2)nc2c1CCCC2 |  | inconclusive: 14.6 µM [inhibitor, partial curve]
COc1ccc(-c2ccc(OC)c(OC)c2OC)cc1 |  | inconclusive: 1.78 µM [inhibitor, full curve, poor fit]
O=C(NCc1ccon1)c1ccc(OC2CCN(CCc3ccccc3)CC2)cc1 |  | inconclusive: 35.5 µM [inhibitor, single point]
CCCNC(=O)N1CCC2(CC1)OCCO2 |  | inconclusive: 0.891 µM [inhibitor, full curve, poor fit]
COc1ccc(C2CC3(CC(C)(C)NC(=O)N3)Oc3cc(O)ccc32)cc1 (configuration not stated) | inactive: 2.71% | 
COc1cc(/C=C(\C#N)c2ccccn2)ccc1OCc1ccccc1 | inactive: 2.53% | 
Cc1ccc(S(=O)(=O)c2c(C)cc(C)nc2N2CCCC2)cc1 |  | inconclusive: 10 µM [inhibitor, partial curve, poor fit]
Cc1ccc(NC(=O)c2scc3c2CCCC3)cc1 |  | inconclusive: 10 µM [inhibitor, partial curve, poor fit]
Cc1ccc(-c2noc(CSc3nnc(C)n3-c3ccc(C)c(C)c3)n2)cc1 |  | inconclusive: 1 µM [inhibitor, full curve, poor fit]
CCOC(=O)N1CCc2c(sc3nc4n(c(=O)c23)N=C(C)CS4)C1 |  | inconclusive: 3.55 µM [activator, partial curve, poor fit]
CC(C)CN(C(=O)CSc1nnc(-c2ccco2)o1)c1c(N)n(Cc2ccccc2)c(=O)[nH]c1=O |  | inconclusive: 3.16 µM [inhibitor, single point]
CN1C(=O)c2cccc(NCCCN3C(=O)c4ccccc4C3=O)c2C1=O |  | inconclusive: 0.82 µM [inhibitor, single point]
CCOC(=O)c1ccc(NCc2nc3ccccc3[nH]2)cc1 | inactive: -2.38% | 
CCOc1ccc(-c2cc(C(=O)Nc3ccc4c(c3)OCCO4)c3ccccc3n2)cc1 |  | inconclusive: 35.5 µM [inhibitor, single point]
COc1ccc(C2=Nn3c(nnc3-c3ccccn3)SC2)cc1OC |  | inactive
CCOc1ccc(C2C(C(=O)c3ccc(C)o3)=C(O)C(=O)N2CCN2CCOCC2)cc1OC (configuration not stated) | inactive: -11% | 

Structure (SMILES) | activity change, negative = inhibition | Potency
Cc1ccc(NC(=O)CSc2nnc(-c3n[nH]c4ccccc34)n2-c2ccccc2)c(C)c1 |  | inconclusive: 16.4 µM [inhibitor, partial curve, poor fit]
CCOC(=O)c1sc(N)c(C#N)c1COC(=O)CNC(=O)c1cc(OC)c(OC)c(OC)c1 |  | inconclusive: 6.51 µM [activator, partial curve]
O=C(Nc1cccc(F)c1)C1CCCN(S(=O)(=O)c2ccccc2)C1 (configuration not stated) |  | inconclusive: 35.5 µM [inhibitor, single point]
CCOc1ccc(N/C=C/C(=O)c2ccccc2)c([N+](=O)[O-])c1 |  | inconclusive: 1.58 µM [inhibitor, full curve, poor fit]
COc1ccc(/C(N)=N/OC(=O)/C=C/c2ccccc2)cc1 |  | inconclusive: 35.5 µM [inhibitor, single point]
Fc1cccc2sc(N3CCCC3)nc12 |  | inconclusive: 1.12 µM [activator, single point]
COc1cc(C(=O)OCC(C)=O)ccc1OCc1c(C)noc1C | inactive: -16.2% [at 46.1 µM] | 
CCN(CC)S(=O)(=O)c1cc(C)c(C)cc1Br |  | inconclusive: 35.5 µM [inhibitor, single point]
CCOc1ccc(N(C(=O)C2CCCO2)C2C=CS(=O)(=O)C2)cc1 (configuration not stated) |  | inconclusive: 14.1 µM [activator, single point]
CC(=O)c1cc(CN2CCN(Cc3ccccc3)C(CCO)C2)cs1 (configuration not stated) |  | inconclusive: 3.98 µM [activator, partial curve]
Cc1ccc(NC(=O)Cn2cccc2C2=NC(c3ccccc3)CO2)cc1C (configuration not stated) |  | inconclusive: 25.1 µM [inhibitor, single point]
CCCCN(Cc1ccccc1)S(=O)(=O)c1cc2c(cc1Br)CC(C)N2C(C)=O (configuration not stated) |  | inconclusive: 12.6 µM [inhibitor, partial curve, poor fit]
CCOC(=O)c1ccc(-c2ccc(/C=N/NC(=O)CN(c3ccccc3Br)S(C)(=O)=O)o2)cc1 |  | inconclusive: 6.51 µM [activator, single point]
CCn1c(C(=O)OC)cc2c1ccn2-c1ccc(F)cc1 | inactive: 15.3% | 
O=C(CN1C(=O)/C(=C/c2cccc(Br)c2)SC1=S)N1CCCC1 |  | inconclusive: 0.447 µM [inhibitor, partial curve, poor fit]
O=C(NCc1n[nH]c(=S)n1-c1ccccc1Cl)c1ccc(S(=O)(=O)N2CCCCC2)cc1 |  | inconclusive: 11.2 µM [activator, single point]
COc1ccc(/C=N/NC(=O)c2cccnc2)cc1CN1CCOCC1 | inactive: -5.38% | 
Cc1ccc(NC(=O)C2C3C=CC4(O3)C2C(=O)N(CCCN2CCCC2)C4C(=O)NC2CCCCC2)cc1Cl (configuration not stated) |  | inconclusive: 35.5 µM [inhibitor, single point]
COc1ccc(NC(=O)Cc2ccc(C)c(C)c2)cc1S(=O)(=O)N1CCCCC1 |  | inconclusive: 25.1 µM [inhibitor, single point]
COc1cc(CNCc2cccs2)ccc1OCC(=O)NC(C)(C)C |  | active: 9.2 µM
Cc1ccc(-c2nnc(NC(=O)C3=COCCO3)o2)c(C)c1 |  | inconclusive: 12.6 µM [activator, single point]
CC(C)OCc1cc(CN2CCN(c3cccc(C(F)(F)F)c3)CC2)c(O)c2ncccc12 |  | inconclusive: 5.62 µM [inhibitor, single point]
CCOC(=O)N1CCN(C(=O)c2ccc3nc4ccc(Cl)cc4c(=O)n3c2)CC1 |  | inconclusive: 29.1 µM [inhibitor, single point]

Single values from the entries so far:
COc1ccc(/C=N/NC(=O)c2cccnc2)cc1CN1CCOCC1 | activity change, negative = inhibition: inactive: -5.38%
CCOC(=O)N1CCc2c(sc3nc4n(c(=O)c23)N=C(C)CS4)C1 | Potency: inconclusive: 3.55 µM [activator, partial curve, poor fit]

More records follow:

Structure (SMILES) | activity change, negative = inhibition | Potency
CC(=O)Nc1nc(C2COc3ccccc3O2)cs1 (configuration not stated) |  | inconclusive: 8.2 µM [inhibitor, partial curve, poor fit]
COc1ccc(-c2cc(C(=O)N/N=C/c3cc(OC)c(OC)cc3OC)c3ccccc3n2)cc1 |  | inconclusive: 22.4 µM [inhibitor, single point]
COc1cccc2c1cc1c(=O)n(CC(=O)NCc3ccco3)nc(C)n12 | inactive: -1.98% [at 46.1 µM] | 
COC(=O)C(NC(=O)c1ccccc1C)(Nc1ncc(S(=O)(=O)c2ccc([N+](=O)[O-])cc2)s1)C(F)(F)F (configuration not stated) |  | inconclusive: 18.3 µM [inhibitor, single point]
CN(c1ccc([N+](=O)[O-])cc1)c1cc2c(c3c1ccn3C)C1CCC2C1 (configuration not stated) |  | inconclusive: 0.887 µM [activator, full curve, poor fit]
O=C(CCn1cnnn1)N1CCCC(Nc2ccc(F)c(F)c2)C1 (configuration not stated) |  | inconclusive: 28.2 µM [activator, single point]
O=C(O)CCc1nn2c3ccccc3nc2n(Cc2ccccc2)c1=O | inactive: 21.9% [at 46.1 µM] | 
Cc1ccc(-n2c(SCC(=O)NCc3ccco3)nc3nc4c(cc3c2=O)COC(C)(C)C4)cc1 |  | inactive
CN(C(=O)Cn1cccc1C1=NC(c2ccccc2)CO1)c1ccccc1 (configuration not stated) | inactive: -7.43% | 
CCOC(=O)C(=NCC1CCCO1)NNc1cc(Cl)ccc1Cl (configuration not stated) | inactive: -8.29% [at 46.1 µM] | 
O=Cc1ccc(-n2cncn2)cc1 |  | inconclusive: 6.31 µM [inhibitor, single point]
O=C(CCC(=O)CCN1CCCCC1)CCN1CCCCC1 |  | inconclusive: 13 µM [inhibitor, partial curve, poor fit]
O=C1CN(S(=O)(=O)c2ccc(F)cc2)CCN1 | inactive: 15.3% [at 46.1 µM] | 
O=C(OCCN1CCOCC1)c1ccc(OCCN2CCOCC2)cc1 |  | inconclusive: 22.4 µM [activator, single point]
O=C(Nc1ccc(Cl)cc1)c1ccc(-n2cccn2)c([N+](=O)[O-])c1 | inactive: 1.28% | 
Cc1ccc2oc(C(=O)N(Cc3sccc3C)C3CCS(=O)(=O)C3)c(C)c2c1 (configuration not stated) |  | active: 3.16 µM
CCOc1ccc(Nc2c(S(=O)(=O)c3ccc(C)cc3)cnc3ccc(F)cc23)cc1 |  | inconclusive: 11.2 µM [inhibitor, partial curve, poor fit]
COc1ccccc1N1CCN(C(=O)CSc2ncnc3scc(-c4ccccc4)c23)CC1 |  | inconclusive: 0.562 µM [inhibitor, partial curve, poor fit]
CCCS(=O)(=O)c1c(S(=O)(=O)CCC)c2c(C)cccn2c1C(N)=O |  | inconclusive: 2.51 µM [inhibitor, partial curve]
CN1C(c2ccc(F)cc2)=CS/C1=C(\C#N)c1nnc2n1-c1ccccc1SC2 |  | inconclusive: 18.3 µM [inhibitor, single point]
Cc1ccc(S(=O)(=O)c2nc(-c3ccccc3Cl)oc2NCCCN2CCOCC2)cc1 |  | inconclusive: 10 µM [inhibitor, partial curve]

Fetched one by one from the entries so far (three):
Structure (SMILES) | activity change, negative = inhibition | Potency
CN(C(=O)Cn1cccc1C1=NC(c2ccccc2)CO1)c1ccccc1 (configuration not stated) | inactive: -7.43% | 
COc1ccc(-c2cc(C(=O)N/N=C/c3cc(OC)c(OC)cc3OC)c3ccccc3n2)cc1 |  | inconclusive: 22.4 µM [inhibitor, single point]
O=C(Nc1ccc(Cl)cc1)c1ccc(-n2cccn2)c([N+](=O)[O-])c1 | inactive: 1.28% | 
